Our source for the IC50, EC50 and GI50 values is PMC10726352, “Discovery of KB-0742, a Potent, Selective, Orally Bioavailable Small Molecule Inhibitor of CDK9 for MYC-Dependent Cancers” (Journal of Medicinal Chemistry, 2023).

Experiment in all cases: OncoPanel Multiplexed Cytotoxicity Assay
Common to all, as to format: cell-based

The subject of assay [1] is BT-20. To be noted: Homo sapiens, BT-20, 72 h, read-out: Cell count IC50.
In assay [2] the test system is Hs 578T. To be noted: Homo sapiens, 72 h.
Assay [3] deals with BT-549. To be noted: Homo sapiens, BT-549, 72 h.
In assay [4] the test system is MDA-MB-231. The following applies: Homo sapiens, MDA-MB-231, 72 h.
The test system of assay [5] is MT-3. To be noted: MT-3, 72 h.

One may read the IC50 as the concentration needed to halve the response being measured. What is called EC50 is the concentration giving half of the maximal effect. By GI50 is commonly meant the concentration giving 50% growth inhibition. Consider `CN[C@@H]1C[C@H]2O[C@@](C)([C@@H]1OC)n1c3ccccc3c3c4c(c5c6ccccc6n2c5c31)C(=O)NC4` [Staurosporine], for which the IC50 in assay [1] worked out at 63.8 nM; in assay [2] (read-out: Cell count IC50), 2.39 nM; in assay [3] (read-out: Cell count IC50) it was 11.4 nM; in assay [5] (read-out: Cell count IC50), 13.5 nM. In addition, the EC50 in assay [2] (read-out: Cell Count EC50) is 1.64 nM; in assay [3] (read-out: Cell Count EC50), 10.2 nM; in assay [4] (read-out: Cell Count EC50) it was 1.18 nM; in assay [5] (read-out: Cell Count EC50), 11.4 nM. Besides, the 50% growth inhibitory concentration (GI50) in assay [4] (read-out: Cell count GI50) is 1.24 nM.
